Assay [1] addresses EphA2-GFP (full-length EphA2 with a C-terminal turboGFP tag) (UniProt P29317). Briefly: SiMPull-POP (single-molecule pulldown, GFP photobleaching step counting by TIRF) in detergent micelles; EphA2-GFP solubilised with 1mM DDM from HEK293T membrane fractions, captured by a biotinylated EphA2 antibody; same conditions as in DIBMALPs (control, EA1-Fc, MβCD, both).
The target is the same in assay [2]. As to the kind of experiment: SiMPull-POP (single-molecule pulldown of polymeric nanodiscs, GFP photobleaching step counting by TIRF); EphA2-GFP in DIBMALPs (0.15% DIBMA) from HEK293T membrane fractions, captured by a biotinylated EphA2 antibody via NeutrAvidin on quartz slides; 100 pM to 5 nM sample; steps corrected for 70% GFP maturation; control, 2uM EA1-Fc, 5 mM MβCD (1 hour) or both.

Protein sequences, listed by entry. Tags and fused reporters are not part of them. Residues count along the entry.
UniProt P29317, residues 24-976: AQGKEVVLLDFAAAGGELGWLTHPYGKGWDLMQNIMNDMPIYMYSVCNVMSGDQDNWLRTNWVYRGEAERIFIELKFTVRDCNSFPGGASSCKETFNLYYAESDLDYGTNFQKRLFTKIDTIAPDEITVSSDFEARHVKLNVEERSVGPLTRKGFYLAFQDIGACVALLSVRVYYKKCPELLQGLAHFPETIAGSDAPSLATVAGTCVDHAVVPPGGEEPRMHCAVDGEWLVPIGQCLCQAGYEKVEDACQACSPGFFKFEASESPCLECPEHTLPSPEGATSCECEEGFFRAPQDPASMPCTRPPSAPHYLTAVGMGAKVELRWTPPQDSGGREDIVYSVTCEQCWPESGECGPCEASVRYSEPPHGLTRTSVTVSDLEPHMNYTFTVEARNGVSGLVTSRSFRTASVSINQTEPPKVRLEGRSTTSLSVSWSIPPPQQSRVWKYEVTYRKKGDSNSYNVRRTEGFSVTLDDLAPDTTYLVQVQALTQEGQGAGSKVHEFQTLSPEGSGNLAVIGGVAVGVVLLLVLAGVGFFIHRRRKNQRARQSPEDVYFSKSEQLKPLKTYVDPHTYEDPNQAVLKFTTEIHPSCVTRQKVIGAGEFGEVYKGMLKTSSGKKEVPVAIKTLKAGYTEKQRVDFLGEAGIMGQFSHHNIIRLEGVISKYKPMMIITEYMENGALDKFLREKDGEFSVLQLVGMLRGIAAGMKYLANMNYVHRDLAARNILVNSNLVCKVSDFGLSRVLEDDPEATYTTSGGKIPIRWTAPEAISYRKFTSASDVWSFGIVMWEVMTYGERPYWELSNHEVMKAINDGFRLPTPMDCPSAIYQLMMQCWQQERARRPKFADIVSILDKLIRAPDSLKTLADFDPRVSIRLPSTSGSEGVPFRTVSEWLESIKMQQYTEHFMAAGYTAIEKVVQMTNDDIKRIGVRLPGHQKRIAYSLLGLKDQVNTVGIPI

These are yes or no findings as the source states them, for the method shown. Some binding calls cover weakened binding; strength is not graded here.

Regarding “EphA2-GFP (full-length EphA2 with a C-terminal turboGFP tag) (from UniProt P29317 24-976) (receptor)”, the binding entry in assay [1] and in assay [2] was “binds” throughout.

The record behind these values is article doi:10.1101/2024.06.10.598255.
